For one molecule, binding results are on record in article PMC5240567, “New Insights into Cooperative Binding of Homeodomain Transcription Factors PREP1 and PBX1 to DNA”.

For this test, the target named is T1, PBX1HD (UniProt P40424 227-317).
T1 sequence: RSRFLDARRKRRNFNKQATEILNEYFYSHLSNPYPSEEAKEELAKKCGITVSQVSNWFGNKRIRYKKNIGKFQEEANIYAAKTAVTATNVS
Description: native gel or EMSA; preformed HD:PMH DNA complex at fixed molar ratio titrated with the second HD (2, 4, 8 and in one case 16 uM); 20 mM Na/K phosphate pH 7.2, 150 mM NaCl, 5% glycerol, 1 mM TCEP; 10% non-denaturing gel, 0.5x TBE, 4 °C; ethidium bromide and coomassie staining; the slow band was identified by mass spectrometry; both purified.

No constants are given. Whether binding was seen depends on the method and setting.

B1: PREP1_(hd-N) (PREP1 residues 240-325) (domain or fragment, UniProt P55347 240-325)
chain: QLQLQLNQDLSILHQDDGSSKNKRGVLPKHATNVMRSWLFQHIGHPYPTEDEKKQIAAQTNLTLLQVNNWFINARRRILQPMLDSS
As to B1, the binding entry is “no binding (tested: PREP1hd-N at 2, 4, 8, and 16 μM)”.
